Reference: patent publication US20190144538A1 (TETRAGENETICS, published 2019)

Target: Nav1.8
Experiment: Nav1.8 ELISA (neg)

binding: no binding
B1: 1A3 (Fc fusion, not shown: small tags and cut ends; a dimerising Fc or GST)
scFv (part 1 of 2): LDIQMTQSPSSVTASVGEKVTINCKSSQSVVSASNQKSYLNWYQQRPGQSPRLLIYYASTQELGIPDRFSGSGSTTDFTLTISSVQPEDAAVYYCQQAYSAPYNFGSGTRLEIK
scFv (part 2 of 2): QVQLQESGGGLVQPGGSLRLSCAASGFTFSINGMSWVRQAPGKEVEWVSSINSGGEITNYRDSVKGRFTISRDNVKNTLYLQMNSLKPEDTAFYHCVTGIVAYDYWGQGTQVTVSS

These are yes or no findings as the source states them, for the method shown.
